Data on 1 substance can be found in paper doi:10.1101/2024.04.27.591399.

Sequences of proteins named here, by UniProt entry; tags and fusion partners are left off.
UniProt Q8VDD5: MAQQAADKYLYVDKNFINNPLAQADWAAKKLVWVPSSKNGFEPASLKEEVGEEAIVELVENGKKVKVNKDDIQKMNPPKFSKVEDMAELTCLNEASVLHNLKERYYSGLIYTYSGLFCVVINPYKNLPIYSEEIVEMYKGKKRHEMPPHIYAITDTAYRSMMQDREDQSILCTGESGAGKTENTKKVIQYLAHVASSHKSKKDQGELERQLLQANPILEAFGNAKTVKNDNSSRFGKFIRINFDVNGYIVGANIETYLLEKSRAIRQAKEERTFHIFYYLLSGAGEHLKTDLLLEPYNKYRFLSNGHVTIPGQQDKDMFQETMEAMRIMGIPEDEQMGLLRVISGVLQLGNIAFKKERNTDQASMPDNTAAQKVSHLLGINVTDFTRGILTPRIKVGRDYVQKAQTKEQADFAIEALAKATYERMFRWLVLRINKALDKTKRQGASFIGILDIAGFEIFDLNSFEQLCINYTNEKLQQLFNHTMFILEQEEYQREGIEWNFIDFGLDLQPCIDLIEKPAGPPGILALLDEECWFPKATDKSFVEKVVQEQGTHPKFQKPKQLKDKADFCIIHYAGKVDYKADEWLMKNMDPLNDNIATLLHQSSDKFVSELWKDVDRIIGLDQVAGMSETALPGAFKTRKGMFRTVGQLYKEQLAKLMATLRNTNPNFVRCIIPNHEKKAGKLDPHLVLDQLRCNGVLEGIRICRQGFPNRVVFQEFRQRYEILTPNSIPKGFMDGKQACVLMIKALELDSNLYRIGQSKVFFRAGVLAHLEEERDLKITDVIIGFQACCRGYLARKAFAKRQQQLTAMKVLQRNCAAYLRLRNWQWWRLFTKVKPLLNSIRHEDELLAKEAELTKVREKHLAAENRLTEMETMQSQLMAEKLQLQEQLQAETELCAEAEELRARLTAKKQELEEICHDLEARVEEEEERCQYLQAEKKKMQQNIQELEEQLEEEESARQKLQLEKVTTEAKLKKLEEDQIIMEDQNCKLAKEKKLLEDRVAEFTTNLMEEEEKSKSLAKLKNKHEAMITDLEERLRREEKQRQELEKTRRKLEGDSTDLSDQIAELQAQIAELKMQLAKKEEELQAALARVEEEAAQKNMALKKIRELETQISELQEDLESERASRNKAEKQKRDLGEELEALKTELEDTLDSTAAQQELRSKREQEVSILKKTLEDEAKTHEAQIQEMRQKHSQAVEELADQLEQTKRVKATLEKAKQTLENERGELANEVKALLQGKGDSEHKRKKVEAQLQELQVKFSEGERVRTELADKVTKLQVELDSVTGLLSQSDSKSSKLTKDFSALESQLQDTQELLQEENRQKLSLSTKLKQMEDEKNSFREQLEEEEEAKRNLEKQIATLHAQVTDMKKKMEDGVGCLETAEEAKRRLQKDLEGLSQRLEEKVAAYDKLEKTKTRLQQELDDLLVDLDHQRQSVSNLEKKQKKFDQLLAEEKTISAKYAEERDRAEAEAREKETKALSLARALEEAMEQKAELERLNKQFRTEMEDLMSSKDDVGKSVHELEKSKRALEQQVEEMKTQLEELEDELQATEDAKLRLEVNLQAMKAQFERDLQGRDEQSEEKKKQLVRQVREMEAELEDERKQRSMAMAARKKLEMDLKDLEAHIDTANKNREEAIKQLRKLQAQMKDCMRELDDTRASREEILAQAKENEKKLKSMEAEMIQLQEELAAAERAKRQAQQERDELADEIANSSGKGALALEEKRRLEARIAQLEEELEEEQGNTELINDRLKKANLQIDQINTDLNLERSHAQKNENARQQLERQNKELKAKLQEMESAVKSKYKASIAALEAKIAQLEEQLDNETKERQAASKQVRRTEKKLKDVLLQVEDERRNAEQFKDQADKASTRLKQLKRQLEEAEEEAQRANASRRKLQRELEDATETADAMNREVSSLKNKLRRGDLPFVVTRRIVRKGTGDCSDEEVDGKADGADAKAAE
UniProt P42337: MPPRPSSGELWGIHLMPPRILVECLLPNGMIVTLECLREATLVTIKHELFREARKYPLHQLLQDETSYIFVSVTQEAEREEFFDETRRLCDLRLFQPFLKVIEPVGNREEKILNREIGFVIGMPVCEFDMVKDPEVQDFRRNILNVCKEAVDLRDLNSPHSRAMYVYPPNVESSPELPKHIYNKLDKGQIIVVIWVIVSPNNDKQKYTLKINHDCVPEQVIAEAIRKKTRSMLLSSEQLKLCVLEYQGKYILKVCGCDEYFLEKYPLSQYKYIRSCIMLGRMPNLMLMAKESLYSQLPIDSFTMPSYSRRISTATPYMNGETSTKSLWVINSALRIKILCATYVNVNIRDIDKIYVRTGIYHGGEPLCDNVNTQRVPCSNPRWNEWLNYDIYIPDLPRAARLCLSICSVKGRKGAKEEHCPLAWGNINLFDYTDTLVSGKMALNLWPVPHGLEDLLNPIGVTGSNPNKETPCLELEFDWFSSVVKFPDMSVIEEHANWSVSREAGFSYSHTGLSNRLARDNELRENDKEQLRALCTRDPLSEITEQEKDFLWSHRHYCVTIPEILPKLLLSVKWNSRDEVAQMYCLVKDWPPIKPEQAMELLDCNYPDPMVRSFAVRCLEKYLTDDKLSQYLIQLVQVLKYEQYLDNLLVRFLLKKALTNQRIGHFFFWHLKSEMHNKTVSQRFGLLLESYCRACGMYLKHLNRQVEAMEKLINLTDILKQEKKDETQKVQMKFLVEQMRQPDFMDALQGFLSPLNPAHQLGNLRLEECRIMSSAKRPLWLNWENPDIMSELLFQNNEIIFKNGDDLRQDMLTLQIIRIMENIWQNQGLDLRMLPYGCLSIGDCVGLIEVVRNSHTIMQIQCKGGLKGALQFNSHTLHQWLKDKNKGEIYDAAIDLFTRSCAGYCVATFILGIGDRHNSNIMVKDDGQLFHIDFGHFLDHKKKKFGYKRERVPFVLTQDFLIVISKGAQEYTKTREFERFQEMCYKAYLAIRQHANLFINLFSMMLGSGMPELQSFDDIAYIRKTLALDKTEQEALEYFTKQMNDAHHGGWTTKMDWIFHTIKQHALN

Results are given in words; binding and its absence hold for the method and conditions named. In cells and extracts the contact can be indirect. A yes stands for co-enrichment or nearness to the bait. Other partners may have been found. A no says only that the protein was not detected with the bait.

The experiment addresses non-muscle myosin IIA (mouse (endogenous in Trp53(-/-) murine GBM cells)) (UniProt Q8VDD5). As to the kind of experiment: affinity purification with mass spectrometry.

In the case of “α subunit of PI3 Kinase (PIK3CA) (from UniProt P42337 1-1068)”, the binding entry is reported as “no binding”.
